We go through one substance from US20110045604A1.

Sequences of proteins named here, by UniProt entry; tags and fusion partners are left off. Residues count along the entry.
UniProt Q96RT1, residues 1321-1410: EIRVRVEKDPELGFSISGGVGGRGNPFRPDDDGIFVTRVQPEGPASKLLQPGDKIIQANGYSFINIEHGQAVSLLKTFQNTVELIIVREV

No constants are given. Whether binding was seen depends on the method and setting. Some entries that bind do so weakly or less than the wild type. Sequences can lack the tags named with a protein.

This test has as its target T1, SUMO-ARVCF peptide fusion protein (yeast).
T1 sequence: PQPVDSWV
The test can be described thus: binding analysis of purified protein.

In the case of “Erbin PDZ (from UniProt Q96RT1 1321-1410)”, the binding result was “binds”.
